Reference: article PMC3283702
No constants are given. Whether binding was seen depends on the method and setting. Binding seen in cells or lysates may run through a third protein. Some entries that bind do so weakly or less than the wild type. Sequences can lack the tags named with a protein.

Amino acid sequences for entries named in this document (tags omitted).
UniProt P53396: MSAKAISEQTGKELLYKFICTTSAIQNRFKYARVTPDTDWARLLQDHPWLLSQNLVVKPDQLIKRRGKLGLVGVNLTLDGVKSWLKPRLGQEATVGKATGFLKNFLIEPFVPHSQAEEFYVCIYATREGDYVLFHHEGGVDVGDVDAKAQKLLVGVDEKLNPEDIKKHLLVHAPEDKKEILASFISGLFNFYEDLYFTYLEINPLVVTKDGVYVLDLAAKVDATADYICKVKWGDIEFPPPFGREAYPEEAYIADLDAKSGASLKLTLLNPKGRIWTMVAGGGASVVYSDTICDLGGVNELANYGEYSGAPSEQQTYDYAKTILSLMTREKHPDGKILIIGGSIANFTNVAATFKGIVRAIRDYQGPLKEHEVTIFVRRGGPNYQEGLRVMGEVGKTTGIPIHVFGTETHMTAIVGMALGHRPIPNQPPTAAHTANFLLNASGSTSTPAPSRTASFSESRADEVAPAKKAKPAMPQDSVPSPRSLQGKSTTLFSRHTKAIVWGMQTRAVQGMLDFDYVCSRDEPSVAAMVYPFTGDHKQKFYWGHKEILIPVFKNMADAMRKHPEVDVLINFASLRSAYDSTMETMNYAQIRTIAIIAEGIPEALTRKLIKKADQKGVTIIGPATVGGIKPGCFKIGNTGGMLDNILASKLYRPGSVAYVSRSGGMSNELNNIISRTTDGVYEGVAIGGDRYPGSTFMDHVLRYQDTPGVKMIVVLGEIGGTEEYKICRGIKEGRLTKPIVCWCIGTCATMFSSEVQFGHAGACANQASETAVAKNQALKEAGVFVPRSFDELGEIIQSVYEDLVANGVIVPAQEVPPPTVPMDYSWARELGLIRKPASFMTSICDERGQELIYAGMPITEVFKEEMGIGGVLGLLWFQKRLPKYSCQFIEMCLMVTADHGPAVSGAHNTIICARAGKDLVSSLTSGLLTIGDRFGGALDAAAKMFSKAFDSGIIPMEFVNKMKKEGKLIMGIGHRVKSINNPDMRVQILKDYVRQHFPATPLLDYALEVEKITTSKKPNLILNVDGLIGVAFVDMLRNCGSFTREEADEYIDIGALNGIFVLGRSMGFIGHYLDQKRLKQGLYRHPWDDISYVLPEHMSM
UniProt P78527: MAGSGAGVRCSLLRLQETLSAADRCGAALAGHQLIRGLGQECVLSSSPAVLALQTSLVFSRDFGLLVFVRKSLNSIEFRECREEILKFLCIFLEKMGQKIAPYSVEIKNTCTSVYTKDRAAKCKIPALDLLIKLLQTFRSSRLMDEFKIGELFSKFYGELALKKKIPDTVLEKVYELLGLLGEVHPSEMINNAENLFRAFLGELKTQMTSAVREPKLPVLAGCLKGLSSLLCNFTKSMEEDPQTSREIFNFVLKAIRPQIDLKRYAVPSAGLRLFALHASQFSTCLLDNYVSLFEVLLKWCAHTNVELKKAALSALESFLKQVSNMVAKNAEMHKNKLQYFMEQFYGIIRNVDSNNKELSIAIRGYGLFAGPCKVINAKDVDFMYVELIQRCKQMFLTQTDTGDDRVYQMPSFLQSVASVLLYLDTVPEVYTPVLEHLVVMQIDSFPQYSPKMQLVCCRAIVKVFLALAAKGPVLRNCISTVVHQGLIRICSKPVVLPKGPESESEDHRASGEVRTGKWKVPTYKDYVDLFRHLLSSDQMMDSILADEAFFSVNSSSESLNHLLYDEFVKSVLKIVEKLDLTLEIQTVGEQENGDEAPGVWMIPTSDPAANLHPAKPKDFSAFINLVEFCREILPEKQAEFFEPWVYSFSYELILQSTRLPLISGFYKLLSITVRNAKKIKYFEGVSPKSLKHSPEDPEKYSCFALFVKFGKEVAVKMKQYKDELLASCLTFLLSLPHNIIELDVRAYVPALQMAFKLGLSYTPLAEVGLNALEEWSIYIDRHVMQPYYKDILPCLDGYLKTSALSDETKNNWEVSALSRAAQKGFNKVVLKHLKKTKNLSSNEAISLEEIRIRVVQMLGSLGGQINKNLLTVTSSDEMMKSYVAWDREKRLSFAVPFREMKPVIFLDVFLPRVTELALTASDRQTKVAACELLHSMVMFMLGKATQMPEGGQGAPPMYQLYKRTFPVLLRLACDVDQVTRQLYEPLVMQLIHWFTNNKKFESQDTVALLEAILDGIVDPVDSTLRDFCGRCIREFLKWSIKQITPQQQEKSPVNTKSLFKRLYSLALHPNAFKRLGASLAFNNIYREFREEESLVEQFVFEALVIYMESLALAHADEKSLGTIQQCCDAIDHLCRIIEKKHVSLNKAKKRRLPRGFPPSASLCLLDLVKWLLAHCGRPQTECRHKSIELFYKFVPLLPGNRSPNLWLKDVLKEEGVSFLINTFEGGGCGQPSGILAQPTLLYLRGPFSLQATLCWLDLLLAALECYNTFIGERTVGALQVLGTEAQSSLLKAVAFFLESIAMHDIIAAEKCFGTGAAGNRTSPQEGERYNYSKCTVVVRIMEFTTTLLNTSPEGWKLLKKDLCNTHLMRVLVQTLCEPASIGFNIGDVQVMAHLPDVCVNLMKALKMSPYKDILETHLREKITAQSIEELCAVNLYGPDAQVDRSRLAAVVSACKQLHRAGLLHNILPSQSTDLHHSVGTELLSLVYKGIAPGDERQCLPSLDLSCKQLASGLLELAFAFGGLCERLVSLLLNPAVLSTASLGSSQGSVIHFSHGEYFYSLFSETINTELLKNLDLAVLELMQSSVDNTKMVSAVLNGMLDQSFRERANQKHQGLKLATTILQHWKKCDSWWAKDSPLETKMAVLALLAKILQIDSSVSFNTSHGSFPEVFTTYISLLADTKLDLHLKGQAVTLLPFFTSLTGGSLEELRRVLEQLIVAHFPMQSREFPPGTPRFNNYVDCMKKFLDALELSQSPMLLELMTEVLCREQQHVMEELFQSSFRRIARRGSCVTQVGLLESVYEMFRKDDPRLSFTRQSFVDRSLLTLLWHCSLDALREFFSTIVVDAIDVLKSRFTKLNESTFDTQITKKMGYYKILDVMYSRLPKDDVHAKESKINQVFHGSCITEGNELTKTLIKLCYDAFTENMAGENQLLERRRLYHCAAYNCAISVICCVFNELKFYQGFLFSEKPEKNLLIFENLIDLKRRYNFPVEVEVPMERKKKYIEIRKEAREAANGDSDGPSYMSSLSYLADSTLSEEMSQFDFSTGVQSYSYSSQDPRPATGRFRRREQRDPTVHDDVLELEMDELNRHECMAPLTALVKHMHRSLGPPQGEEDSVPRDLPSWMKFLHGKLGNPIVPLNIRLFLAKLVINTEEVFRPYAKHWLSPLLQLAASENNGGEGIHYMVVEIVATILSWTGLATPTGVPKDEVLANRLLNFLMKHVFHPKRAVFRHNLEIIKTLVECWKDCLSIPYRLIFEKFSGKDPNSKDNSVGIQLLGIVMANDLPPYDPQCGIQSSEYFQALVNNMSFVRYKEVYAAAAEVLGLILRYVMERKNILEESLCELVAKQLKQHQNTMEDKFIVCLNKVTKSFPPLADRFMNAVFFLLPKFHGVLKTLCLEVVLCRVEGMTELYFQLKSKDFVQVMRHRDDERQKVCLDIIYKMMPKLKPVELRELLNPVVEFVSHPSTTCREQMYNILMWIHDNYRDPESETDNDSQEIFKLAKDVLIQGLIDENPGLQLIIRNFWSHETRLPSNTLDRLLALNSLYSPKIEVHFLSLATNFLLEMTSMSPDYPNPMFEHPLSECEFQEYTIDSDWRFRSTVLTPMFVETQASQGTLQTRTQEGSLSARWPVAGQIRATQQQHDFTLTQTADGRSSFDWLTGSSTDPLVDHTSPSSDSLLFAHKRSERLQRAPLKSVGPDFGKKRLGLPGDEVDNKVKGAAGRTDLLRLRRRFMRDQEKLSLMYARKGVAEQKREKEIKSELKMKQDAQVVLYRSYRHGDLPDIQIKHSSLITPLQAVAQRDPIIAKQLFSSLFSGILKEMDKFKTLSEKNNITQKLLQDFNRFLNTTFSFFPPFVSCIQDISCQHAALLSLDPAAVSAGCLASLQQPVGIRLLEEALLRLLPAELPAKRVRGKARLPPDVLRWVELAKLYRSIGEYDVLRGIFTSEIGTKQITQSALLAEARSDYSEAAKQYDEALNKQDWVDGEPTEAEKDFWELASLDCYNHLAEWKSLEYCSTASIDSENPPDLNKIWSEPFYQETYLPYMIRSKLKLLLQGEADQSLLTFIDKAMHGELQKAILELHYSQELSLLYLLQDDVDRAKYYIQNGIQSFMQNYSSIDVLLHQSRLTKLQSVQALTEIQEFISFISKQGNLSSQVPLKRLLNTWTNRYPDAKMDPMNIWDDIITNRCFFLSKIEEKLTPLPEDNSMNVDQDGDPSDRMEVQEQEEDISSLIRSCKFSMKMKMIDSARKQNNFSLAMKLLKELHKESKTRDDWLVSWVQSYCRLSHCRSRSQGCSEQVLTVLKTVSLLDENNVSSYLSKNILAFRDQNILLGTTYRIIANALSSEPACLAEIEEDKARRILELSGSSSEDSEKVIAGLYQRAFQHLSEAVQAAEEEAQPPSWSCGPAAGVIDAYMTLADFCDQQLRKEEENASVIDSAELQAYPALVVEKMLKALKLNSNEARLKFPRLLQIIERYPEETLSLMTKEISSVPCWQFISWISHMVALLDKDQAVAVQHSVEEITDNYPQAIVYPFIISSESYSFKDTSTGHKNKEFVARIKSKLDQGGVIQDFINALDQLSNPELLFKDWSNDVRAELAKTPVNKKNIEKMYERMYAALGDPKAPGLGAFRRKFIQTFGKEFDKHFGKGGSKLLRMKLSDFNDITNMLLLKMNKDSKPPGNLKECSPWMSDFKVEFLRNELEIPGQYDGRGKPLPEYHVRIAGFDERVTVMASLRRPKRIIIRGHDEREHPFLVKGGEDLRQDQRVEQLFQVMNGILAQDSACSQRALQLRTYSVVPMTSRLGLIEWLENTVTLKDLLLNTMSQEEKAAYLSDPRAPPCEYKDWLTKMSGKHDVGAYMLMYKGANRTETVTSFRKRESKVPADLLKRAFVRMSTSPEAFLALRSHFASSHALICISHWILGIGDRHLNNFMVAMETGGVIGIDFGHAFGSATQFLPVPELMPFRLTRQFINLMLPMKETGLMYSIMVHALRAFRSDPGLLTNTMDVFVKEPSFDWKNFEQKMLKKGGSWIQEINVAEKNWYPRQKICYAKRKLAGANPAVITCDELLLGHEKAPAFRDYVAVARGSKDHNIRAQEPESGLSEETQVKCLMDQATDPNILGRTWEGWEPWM
UniProt P12956: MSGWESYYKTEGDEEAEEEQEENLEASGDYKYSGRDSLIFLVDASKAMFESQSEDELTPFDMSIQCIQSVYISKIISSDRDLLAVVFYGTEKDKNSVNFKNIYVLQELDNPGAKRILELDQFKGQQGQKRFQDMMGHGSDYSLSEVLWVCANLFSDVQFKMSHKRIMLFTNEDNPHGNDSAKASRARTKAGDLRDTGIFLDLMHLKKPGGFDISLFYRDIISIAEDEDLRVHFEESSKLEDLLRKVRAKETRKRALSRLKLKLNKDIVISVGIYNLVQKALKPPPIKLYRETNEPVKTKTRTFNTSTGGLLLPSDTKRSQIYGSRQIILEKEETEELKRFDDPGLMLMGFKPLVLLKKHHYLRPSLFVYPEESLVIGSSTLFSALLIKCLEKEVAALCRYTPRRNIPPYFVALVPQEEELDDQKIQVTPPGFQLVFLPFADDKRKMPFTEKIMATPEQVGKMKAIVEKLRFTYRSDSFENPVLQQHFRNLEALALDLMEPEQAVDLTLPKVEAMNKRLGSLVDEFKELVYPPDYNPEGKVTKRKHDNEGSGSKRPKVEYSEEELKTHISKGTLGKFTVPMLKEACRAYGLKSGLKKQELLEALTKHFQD
UniProt P13010: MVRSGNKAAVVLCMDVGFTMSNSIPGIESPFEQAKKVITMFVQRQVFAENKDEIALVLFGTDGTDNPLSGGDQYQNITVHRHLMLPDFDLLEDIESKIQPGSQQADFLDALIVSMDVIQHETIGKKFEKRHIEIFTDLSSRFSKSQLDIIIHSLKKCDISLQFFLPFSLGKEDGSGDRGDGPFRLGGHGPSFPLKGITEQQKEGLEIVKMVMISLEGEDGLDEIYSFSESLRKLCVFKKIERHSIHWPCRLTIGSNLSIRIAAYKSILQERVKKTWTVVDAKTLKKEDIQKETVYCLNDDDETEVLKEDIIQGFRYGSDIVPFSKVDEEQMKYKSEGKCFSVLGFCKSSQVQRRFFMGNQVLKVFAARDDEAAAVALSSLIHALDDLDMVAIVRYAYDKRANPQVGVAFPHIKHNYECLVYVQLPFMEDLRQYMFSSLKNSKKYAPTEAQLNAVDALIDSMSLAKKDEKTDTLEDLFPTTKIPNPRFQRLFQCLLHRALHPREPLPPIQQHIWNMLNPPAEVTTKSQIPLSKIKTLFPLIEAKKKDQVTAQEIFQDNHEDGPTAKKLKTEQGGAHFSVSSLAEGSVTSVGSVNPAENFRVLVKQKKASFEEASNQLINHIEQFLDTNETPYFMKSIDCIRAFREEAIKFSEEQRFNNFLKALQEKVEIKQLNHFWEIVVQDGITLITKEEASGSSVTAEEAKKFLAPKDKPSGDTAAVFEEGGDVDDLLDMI

T1: GST-L4-33K fusion protein (adenovirus L4-33K) (human adenovirus (serotype not stated for this construct)) (UniProt P24940)
T1 sequence: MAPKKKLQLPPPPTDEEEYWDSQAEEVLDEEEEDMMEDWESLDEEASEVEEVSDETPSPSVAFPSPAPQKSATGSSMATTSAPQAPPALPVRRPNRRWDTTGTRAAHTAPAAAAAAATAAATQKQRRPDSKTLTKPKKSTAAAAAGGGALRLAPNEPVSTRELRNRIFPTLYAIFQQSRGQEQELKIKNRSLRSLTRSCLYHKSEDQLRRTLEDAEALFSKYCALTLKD

T2: FLAG-epitope tagged L4-33K protein expressed from the recombinant AdEasy-L4-33K virus (human adenovirus 5 (Ad5, by the plasmid name)) (UniProt P24940)
T2 sequence: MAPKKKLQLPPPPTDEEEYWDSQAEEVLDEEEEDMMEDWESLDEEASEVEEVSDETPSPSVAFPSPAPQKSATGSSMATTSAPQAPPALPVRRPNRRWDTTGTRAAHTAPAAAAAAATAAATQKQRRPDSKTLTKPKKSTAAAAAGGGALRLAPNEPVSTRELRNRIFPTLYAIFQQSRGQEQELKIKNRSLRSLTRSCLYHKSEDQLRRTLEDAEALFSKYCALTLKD


What was measured:
[1] = molecular target: T1, GST-L4-33K fusion protein (adenovirus L4-33K) (human adenovirus (serotype not stated for this construct)); test: pull-down; 5 µg purified GST-L4-33K (or GST) mixed with 1 mg HeLa nuclear extract or adenovirus late infected nuclear extract in 500 µL 60% Buffer D, Glutathione Sepharose 4B, 2 h at 4°C, five washes; SDS-PAGE, colloidal CBB staining, visible bands identified by mass spectrometry; only the target purified
[2] = molecular target: T2, FLAG-epitope tagged L4-33K protein expressed from the recombinant AdEasy-L4-33K virus (human adenovirus 5 (Ad5, by the plasmid name)); test: co-IP; nuclear extract of HEK293 cells infected with AdEasy-L4-33K or AdEasy-GFP (20 hpi, no doxycycline), 60% Buffer D, anti-FLAG M2 affinity gel 2 h at 4°C, eluted with 3xFLAG peptide; SDS-PAGE, colloidal CBB staining, bands identified by mass spectrometry

Row | Molecule | binding [1] | binding [2]
1 | ATP-citrate lyase (from UniProt P53396 1-1101) (enzyme) | binds | 
2 | DNA-dependent protein kinase catalytic subunit (from UniProt P78527 1-4128) (enzyme) | binds | binds
3 | Ku70 (from UniProt P12956 1-609) | no binding | no binding
4 | Ku86 (from UniProt P13010 1-732) | no binding | no binding
5 | Aldolase A (enzyme, UniProt P04075 1-364) MPYQYPALTPEQKKELSDIAHRIVAPGKGILAADESTGSIAKRLQSIGTENTEENRRFYRQLLLTADDRVNPCIGGVILFHETLYQKADDGRPFPQVIKSKGGVVGIKVDKGVVPLAGTNGETTTQGLDGLSERCAQYKKDGADFAKWRCVLKIGEHTPSALAIMENANVLARYASICQQNGIVPIVEPEILPDGDHDLKRCQYVTEKVLAAVYKALSDHHIYLEGTLLKPNMVTPGHACTQKFSHEEIAMATVTALRRTVPPAVTGITFLSGGQSEEEASINLNAINKCPLLKPWALTFSYGRALQASALKAWGGKKENLKAAQEEYVKRALANSLACQGKYTPSGQAGAAASESLFVSNHAY | binds | 
